Patent US12635718B2, “Flavanone derivatives and their use as sweetness enhancers” (Firmenich SA, priority 2019, dated 2026)

Test system: taste panelists
Test: Taste panel rating of sweetness and licorice taste of 5% sucrose solutions
Format: in vivo, human
Details: scale 0 to 10
Method: A test compound, (2R,3R)-3-acetoxy-5,7,4′-trihydroxyflavanone (A01), was tested in comparison to naringenin for its sweetness enhancement of a 5% (w/w) aqueous solution of sucrose. Taste panelists were asked to taste the following 5% sucrose solutions in Henniez water and rate their sweetness on a scale from 0 to 10, and to rate the presence of any licorice taste in the sample on a scale from 0 to 10.
The test compound A01 was tested in comparison to other sweetness enhancers in a similar test to that set forth in Example 1. The comparative compounds are taxifolin 3-O-acetate (A02), and ampelopsin 3-O-acetate (A03).

[1] = +20 ppm in 5% sucrose solution (Table 2)

Row | Compound | Licorice Taste (0-10) [1] | Licorice Taste (0-10) (+5 ppm in 5% (w/w) sucrose solution in Henniez water) | Licorice Taste (0-10) (+10 ppm in 5% (w/w) sucrose solution in Henniez water) | Licorice Taste (0-10) (+50 ppm in 5% (w/w) sucrose solution in Henniez water)
1 | CC(=O)OC1C(=O)c2c(O)cc(O)cc2OC1c1cc(O)c(O)c(O)c1 (centres unmarked) [A03, ampelopsin 3-O-acetate, reference compound] | 0.0 |  |  | 
2 | CC(=O)O[C@H]1C(=O)c2c(O)cc(O)cc2O[C@@H]1c1ccc(O)cc1 [A01, (2R,3R)-3-acetoxy-5,7,4′-trihydroxyflavanone] | 1.5 | 1.0 | 2.0 | 
3 | O=C1C[C@@H](c2ccc(O)cc2)Oc2cc(O)cc(O)c21 [naringenin, reference compound] |  |  |  | 0.5
